Data taken from the supplement of paper PMC6411743.
± gives the standard deviation of the averaged measurements. The entries are a selection whose mix differs from that of the whole data set. Small differences around the control level are noise.

The chains behind the UniProt entries cited, without tags or fusion partners. Where a name states a change or a piece, a line headed by the entry shows the natural chain unless it says otherwise.
UniProt P31946: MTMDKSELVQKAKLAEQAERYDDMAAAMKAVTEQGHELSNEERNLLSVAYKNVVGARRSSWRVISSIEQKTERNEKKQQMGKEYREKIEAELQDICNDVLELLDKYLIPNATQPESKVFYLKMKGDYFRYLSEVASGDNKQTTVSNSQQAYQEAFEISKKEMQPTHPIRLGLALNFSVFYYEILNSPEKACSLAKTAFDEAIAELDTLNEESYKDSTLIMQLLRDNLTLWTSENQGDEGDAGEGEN
UniProt P31327: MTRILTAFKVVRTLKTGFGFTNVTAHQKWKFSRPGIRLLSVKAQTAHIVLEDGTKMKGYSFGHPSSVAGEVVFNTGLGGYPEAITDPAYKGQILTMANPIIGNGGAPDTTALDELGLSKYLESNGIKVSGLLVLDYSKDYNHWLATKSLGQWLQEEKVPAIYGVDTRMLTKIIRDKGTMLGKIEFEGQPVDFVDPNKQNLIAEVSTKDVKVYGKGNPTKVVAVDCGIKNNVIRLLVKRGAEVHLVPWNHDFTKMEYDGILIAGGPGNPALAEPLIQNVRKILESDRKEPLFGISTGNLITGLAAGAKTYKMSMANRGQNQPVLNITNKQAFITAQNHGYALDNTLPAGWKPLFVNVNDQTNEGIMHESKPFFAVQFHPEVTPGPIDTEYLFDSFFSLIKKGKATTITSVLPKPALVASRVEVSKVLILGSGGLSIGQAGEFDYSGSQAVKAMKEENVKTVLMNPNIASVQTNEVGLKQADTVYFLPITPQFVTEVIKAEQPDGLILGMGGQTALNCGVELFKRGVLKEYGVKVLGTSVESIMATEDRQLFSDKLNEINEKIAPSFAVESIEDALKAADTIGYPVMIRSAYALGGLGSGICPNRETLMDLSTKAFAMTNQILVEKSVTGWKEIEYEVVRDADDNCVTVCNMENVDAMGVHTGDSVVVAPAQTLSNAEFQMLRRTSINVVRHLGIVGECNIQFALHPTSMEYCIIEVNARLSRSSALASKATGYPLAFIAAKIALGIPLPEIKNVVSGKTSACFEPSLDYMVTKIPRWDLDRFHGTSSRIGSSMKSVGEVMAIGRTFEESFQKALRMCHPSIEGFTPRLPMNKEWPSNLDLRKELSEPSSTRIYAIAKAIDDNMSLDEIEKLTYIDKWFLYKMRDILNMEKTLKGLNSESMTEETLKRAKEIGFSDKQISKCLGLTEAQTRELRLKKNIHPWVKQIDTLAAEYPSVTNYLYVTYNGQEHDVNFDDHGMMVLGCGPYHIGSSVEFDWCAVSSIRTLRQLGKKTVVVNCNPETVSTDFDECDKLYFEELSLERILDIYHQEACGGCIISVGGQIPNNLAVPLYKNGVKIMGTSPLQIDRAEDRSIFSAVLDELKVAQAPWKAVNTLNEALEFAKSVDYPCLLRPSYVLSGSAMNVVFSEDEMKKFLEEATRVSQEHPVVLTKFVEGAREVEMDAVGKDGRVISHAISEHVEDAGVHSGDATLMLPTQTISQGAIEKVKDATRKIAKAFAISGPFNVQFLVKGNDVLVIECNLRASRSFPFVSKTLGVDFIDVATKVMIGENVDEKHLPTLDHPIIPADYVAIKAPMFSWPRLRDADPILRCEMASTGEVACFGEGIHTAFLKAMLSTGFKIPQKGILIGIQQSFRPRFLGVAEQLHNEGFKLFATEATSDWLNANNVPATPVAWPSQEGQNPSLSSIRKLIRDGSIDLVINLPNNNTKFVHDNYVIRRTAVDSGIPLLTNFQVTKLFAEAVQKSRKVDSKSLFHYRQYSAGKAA
UniProt P35221: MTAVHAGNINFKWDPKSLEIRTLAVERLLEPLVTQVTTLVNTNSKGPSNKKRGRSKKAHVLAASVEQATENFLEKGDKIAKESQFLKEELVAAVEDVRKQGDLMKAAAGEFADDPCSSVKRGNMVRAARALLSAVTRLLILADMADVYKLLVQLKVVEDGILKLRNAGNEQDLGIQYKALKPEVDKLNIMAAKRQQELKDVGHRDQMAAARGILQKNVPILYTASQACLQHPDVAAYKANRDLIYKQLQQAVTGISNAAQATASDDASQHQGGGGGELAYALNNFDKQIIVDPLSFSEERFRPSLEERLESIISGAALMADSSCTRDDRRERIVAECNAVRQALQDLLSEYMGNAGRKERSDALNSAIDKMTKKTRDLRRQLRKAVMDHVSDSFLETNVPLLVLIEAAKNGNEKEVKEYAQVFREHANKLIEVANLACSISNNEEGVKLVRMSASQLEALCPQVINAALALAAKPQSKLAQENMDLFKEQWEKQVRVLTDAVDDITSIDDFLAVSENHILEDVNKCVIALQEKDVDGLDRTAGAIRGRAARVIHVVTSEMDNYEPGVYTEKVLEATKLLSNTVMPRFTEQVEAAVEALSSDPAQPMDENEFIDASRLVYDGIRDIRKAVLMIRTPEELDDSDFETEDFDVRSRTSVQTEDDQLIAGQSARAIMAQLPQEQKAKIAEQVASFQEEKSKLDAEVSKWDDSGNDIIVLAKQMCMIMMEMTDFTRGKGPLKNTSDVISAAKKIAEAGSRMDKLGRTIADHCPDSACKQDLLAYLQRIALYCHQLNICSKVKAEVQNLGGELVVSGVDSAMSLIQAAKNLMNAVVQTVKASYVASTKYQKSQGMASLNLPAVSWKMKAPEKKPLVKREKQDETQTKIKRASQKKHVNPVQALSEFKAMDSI
UniProt P27105: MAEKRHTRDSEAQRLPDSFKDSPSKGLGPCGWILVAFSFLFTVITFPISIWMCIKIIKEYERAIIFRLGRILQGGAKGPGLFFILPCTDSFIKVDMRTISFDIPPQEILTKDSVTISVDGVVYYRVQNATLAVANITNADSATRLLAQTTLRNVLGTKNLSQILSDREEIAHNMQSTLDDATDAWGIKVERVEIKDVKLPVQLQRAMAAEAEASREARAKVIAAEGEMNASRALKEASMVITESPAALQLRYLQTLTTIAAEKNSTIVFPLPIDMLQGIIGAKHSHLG
UniProt P35241, whole entry: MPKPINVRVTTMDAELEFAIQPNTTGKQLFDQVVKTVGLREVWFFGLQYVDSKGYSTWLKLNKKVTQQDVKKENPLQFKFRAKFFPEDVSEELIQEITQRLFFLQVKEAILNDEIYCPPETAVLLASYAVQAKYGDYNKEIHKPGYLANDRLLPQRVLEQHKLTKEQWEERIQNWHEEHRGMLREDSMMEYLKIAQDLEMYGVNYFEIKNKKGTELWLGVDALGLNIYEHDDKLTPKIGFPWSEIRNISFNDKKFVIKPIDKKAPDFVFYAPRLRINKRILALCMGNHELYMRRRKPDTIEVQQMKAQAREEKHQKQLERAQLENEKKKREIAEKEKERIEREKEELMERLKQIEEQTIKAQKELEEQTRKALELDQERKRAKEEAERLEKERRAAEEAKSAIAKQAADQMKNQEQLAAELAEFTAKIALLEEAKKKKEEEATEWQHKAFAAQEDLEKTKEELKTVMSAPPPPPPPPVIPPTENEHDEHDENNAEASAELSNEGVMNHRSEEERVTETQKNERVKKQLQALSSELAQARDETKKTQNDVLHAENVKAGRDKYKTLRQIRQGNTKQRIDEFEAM
UniProt P29590: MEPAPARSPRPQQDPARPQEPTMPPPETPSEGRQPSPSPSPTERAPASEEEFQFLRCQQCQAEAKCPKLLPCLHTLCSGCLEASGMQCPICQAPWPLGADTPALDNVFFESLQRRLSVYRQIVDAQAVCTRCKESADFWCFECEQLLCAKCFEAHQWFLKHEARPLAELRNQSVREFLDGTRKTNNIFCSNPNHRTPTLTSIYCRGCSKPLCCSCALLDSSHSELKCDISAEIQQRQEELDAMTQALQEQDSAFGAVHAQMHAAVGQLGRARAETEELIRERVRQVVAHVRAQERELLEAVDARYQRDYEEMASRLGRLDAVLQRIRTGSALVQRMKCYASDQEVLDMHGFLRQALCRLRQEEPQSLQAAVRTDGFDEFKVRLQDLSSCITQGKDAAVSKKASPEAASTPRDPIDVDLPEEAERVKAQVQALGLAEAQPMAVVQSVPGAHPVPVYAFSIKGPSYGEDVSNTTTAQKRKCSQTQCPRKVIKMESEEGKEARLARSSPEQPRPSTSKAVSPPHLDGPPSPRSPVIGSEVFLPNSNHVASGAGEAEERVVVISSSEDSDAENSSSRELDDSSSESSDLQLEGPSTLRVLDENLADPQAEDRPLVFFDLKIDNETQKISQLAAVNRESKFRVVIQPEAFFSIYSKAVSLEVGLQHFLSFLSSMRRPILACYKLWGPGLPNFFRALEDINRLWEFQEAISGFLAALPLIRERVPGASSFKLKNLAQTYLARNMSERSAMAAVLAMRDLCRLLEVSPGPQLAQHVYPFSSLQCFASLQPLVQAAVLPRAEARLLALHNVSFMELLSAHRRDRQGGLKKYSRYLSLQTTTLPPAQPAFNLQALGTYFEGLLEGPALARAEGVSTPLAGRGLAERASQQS
UniProt P32189: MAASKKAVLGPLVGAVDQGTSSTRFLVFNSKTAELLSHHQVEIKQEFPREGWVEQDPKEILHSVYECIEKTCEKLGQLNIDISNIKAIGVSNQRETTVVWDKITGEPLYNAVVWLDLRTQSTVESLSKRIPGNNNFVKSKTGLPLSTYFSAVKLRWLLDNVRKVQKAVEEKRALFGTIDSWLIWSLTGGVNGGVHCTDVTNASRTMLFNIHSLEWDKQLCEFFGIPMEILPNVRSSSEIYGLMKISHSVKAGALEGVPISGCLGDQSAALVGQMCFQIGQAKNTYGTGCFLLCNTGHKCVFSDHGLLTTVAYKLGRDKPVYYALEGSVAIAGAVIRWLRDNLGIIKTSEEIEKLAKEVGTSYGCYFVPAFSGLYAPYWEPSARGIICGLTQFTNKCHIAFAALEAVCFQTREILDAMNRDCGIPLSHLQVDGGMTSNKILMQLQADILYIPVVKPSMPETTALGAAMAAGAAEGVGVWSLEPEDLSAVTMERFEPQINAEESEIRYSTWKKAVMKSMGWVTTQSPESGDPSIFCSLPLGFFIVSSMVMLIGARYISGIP
UniProt P23246: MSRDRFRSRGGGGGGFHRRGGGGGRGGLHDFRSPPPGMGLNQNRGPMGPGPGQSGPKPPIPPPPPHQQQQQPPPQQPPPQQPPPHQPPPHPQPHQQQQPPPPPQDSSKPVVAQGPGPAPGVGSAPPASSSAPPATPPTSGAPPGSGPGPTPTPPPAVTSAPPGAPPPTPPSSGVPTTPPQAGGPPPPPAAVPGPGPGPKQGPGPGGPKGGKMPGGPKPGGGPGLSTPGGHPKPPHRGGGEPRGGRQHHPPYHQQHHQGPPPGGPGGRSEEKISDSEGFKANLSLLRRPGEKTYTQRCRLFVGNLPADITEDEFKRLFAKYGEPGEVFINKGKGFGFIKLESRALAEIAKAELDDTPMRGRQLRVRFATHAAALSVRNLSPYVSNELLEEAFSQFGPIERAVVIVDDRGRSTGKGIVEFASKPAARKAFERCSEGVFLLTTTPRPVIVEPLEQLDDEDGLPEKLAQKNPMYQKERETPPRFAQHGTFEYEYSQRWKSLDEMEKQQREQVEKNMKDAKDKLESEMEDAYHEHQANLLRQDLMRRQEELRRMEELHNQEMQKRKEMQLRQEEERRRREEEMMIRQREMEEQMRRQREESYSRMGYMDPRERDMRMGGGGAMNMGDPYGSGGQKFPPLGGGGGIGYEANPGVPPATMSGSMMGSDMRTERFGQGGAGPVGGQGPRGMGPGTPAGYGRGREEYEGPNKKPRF
UniProt P20042, whole entry: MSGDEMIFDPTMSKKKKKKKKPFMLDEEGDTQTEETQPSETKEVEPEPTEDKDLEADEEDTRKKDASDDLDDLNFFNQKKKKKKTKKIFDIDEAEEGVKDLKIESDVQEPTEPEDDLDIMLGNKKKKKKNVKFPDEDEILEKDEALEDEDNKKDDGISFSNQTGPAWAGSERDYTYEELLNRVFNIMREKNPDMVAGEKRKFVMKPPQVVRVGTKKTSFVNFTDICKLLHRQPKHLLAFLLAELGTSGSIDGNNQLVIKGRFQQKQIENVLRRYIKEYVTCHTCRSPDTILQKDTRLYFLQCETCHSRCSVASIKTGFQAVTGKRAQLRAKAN
UniProt P32121, whole entry: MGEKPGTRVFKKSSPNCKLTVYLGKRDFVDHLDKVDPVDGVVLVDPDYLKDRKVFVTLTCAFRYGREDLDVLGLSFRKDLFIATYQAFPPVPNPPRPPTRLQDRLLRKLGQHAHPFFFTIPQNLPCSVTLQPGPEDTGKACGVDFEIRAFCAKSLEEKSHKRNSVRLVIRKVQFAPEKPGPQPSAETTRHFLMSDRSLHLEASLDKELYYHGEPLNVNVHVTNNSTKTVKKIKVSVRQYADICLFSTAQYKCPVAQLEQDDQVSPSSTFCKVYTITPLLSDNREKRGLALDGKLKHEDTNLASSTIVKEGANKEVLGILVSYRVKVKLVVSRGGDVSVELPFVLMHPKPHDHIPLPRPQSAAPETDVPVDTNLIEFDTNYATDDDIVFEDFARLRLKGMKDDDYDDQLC

What follows are targets tested with Nc1ncnc2c1ncn2[C@@H]1O[C@H](COP(=O)(O)OP(=O)(O)NP(=O)(O)O)[C@@H](O)[C@H]1O [adenylyl imidodiphosphate] (assay: NP40-soluble protein abundance relative to vehicle (solubility fold change) (ratio); higher = more soluble protein in presence of AMP-PNP). Conditions: concentration: 0.1mM.
In short: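 Values are fold changes against the detergent-processed vehicle, based on vsn-normalised intensities. Jurkat crude lysate was treated at eight concentrations from 0.1 to 10 mM (10 min at room temperature, then 3 min at 37 °C), solubilised with 0.8% NP40 and benzonase, ultracentrifuged and analysed by TMT-labelled LC-MS/MS over three independent experiments.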
With UniProt P25705 and related entries the NP40-soluble protein abundance was 1.01 ± 0.011.
For UniProt P28331 and related entries, the NP40-soluble protein abundance was 1.01 ± 0.0098.
For COIL (UniProt P38432), the NP40-soluble protein abundance was 0.982 ± 0.02.
HSPA4 (UniProt P34932) showed an NP40-soluble protein abundance of 0.964 ± 0.021.
For UniProt P18858 and related entries, the NP40-soluble protein abundance was 1.01 ± 0.014.
Work on YWHAB (UniProt P31946) yielded an NP40-soluble protein abundance of 1 ± 0.062.
With PIK3R1 (UniProt P27986) the NP40-soluble protein abundance was 1.008 ± 0.0034.
DNAJB2 (UniProt P25686) gave an NP40-soluble protein abundance of 0.964 ± 0.02.
Target UniProt P31327 and related entries has an NP40-soluble protein abundance of 1.019 ± 0.0038.
With ABCD1 (UniProt P33897) the NP40-soluble protein abundance was 1.03 ± 0.023.

Same assay, conditions: concentration: 0.5mM
In the case of UniProt P35221 and related entries, the NP40-soluble protein abundance is reported as 0.98 ± 0.02.
For CD53 (UniProt P19397), the NP40-soluble protein abundance was 1.08 ± 0.062.
In the case of MYH9 (UniProt P35579), the NP40-soluble protein abundance is reported as 1.06 ± 0.071.
With HPCAL1 (UniProt P37235) the NP40-soluble protein abundance was 1 ± 0.037.
UniProt P32519 and related entries showed an NP40-soluble protein abundance of 0.975 ± 0.016.
Target UniProt P20339 and related entries has an NP40-soluble protein abundance of 1.02 ± 0.053.
With UniProt P31948 and related entries the NP40-soluble protein abundance was 0.999 ± 0.055.
UniProt P17706 and related entries gave an NP40-soluble protein abundance of 0.971 ± 0.018.
With STOM (UniProt P27105) the NP40-soluble protein abundance was 1.01 ± 0.017.
For UniProt P18754-2|P18754, the NP40-soluble protein abundance was 1.04 ± 0.02.
RDX (UniProt P35241) gave an NP40-soluble protein abundance of 1.04 ± 0.086.
UniProt P29350 and related entries was tested, and the NP40-soluble protein abundance was 1.01 ± 0.035.
PSMB4 (UniProt P28070) gave an NP40-soluble protein abundance of 1.04 ± 0.021.
For UniProt P29590 and related entries, the NP40-soluble protein abundance was 1.02 ± 0.051.
For UniProt P27361, the NP40-soluble protein abundance was 1.04 ± 0.075.
Target UniProt P32189 and related entries has an NP40-soluble protein abundance of 0.994 ± 0.054.
In the case of SP100 (UniProt P23497), the NP40-soluble protein abundance is reported as 0.988 ± 0.064.
For SFPQ (UniProt P23246), the NP40-soluble protein abundance was 1.1 ± 0.014.
In the case of EIF2S2 (UniProt P20042), the NP40-soluble protein abundance is reported as 1.04 ± 0.039.
UniProt P39687 and related entries gave an NP40-soluble protein abundance of 0.996 ± 0.062.
For RPL12 (UniProt P30050), the NP40-soluble protein abundance was 1.03 ± 0.022.
Work on XPA (UniProt P23025) yielded an NP40-soluble protein abundance of 0.972 ± 0.019.
For RPL13 (UniProt P26373), the NP40-soluble protein abundance was 1.01 ± 0.025.
For AGL (UniProt P35573), the NP40-soluble protein abundance was 1.01 ± 0.086.
UniProt P32121 and related entries gave an NP40-soluble protein abundance of 1.07 ± 0.043.
For WARS (UniProt P23381), the NP40-soluble protein abundance was 0.993 ± 0.053.
In the case of SLC7A1 (UniProt P30825), the NP40-soluble protein abundance is reported as 0.963 ± 0.028.
UniProt P25705 and related entries showed an NP40-soluble protein abundance of 1.02 ± 0.015.
Target UniProt P28331 and related entries has an NP40-soluble protein abundance of 0.988 ± 0.017.
Work on COIL (UniProt P38432) yielded an NP40-soluble protein abundance of 1.001 ± 0.0087.
Work on HSPA4 (UniProt P34932) yielded an NP40-soluble protein abundance of 0.986 ± 0.032.
UniProt P18858 and related entries was tested, and the NP40-soluble protein abundance was 1 ± 0.02.
YWHAB (UniProt P31946) was tested, and the NP40-soluble protein abundance was 1.07 ± 0.088.
Work on PIK3R1 (UniProt P27986) yielded an NP40-soluble protein abundance of 0.968 ± 0.028.
For DNAJB2 (UniProt P25686), the NP40-soluble protein abundance was 0.955 ± 0.019.
With UniProt P31327 and related entries the NP40-soluble protein abundance was 1 ± 0.011.
For ABCD1 (UniProt P33897), the NP40-soluble protein abundance was 1.008 ± 0.01.
